Data published in PubChem BioAssay AID493014 (National Center for Advancing Translational Sciences (NCATS), 2011).
The other results are listed elsewhere or left out. These are further read-outs of the screen, such as a control signal, another cell line or another target. No call is given for them. Compounds called inactive in the main read-out are mostly missing here. The note in brackets gives the kind of curve behind each potency; many fits are weak.

Assay: qHTS Assay to Find Inhibitors of Chronic Active B-Cell Receptor Signaling
Details: ABC-DLBCL IkBa-CBG/CBR reporter, luminescence ratio (green luciferase fused to IkBa over red control in TMD8 lymphoma cells), 4 h
Summary of the method: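 Compounds up to 46 uM were incubated four hours with TMD8 cells whose green CBG68 luciferase is fused to IkappaBalpha; red CBR luminescence normalised the signal, and concentration-effect curves were fitted to fusion, red and ratio data.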

[1] = measured here: CBR red luminescence, cell number

Row | Compound | AC50 [1] | AC50 (measured here: IkBa-CBG green luminescence)
1 | Cc1csc(NC(=O)CSc2nnc(Cn3c(=O)sc4ccccc43)n2-c2ccccc2)n1 | 20 µM [falling, partial curve, poor fit] | 
2 | CC1(C)CC(=O)C(C(C2=C(O)CC(C)(C)CC2=O)c2ccc(Br)s2)C(=O)C1 (stereo not drawn) | 25.9 µM [falling, single point] | 20.6 µM [rising, single point]
3 | Cc1ccc(S(=O)(=O)n2ccc3c2CCCC3=O)cc1 | 15.8 µM [rising, partial curve, poor fit] | 
4 | CCC(C)(C(=O)NC1CCCCC1)N(C(=O)c1ccccn1)c1ccc(C)cc1 (stereo not drawn) | 14.6 µM [falling, partial curve, poor fit] | 
5 | Cc1occc1C(=O)Nc1nccs1 | 8.2 µM [falling, partial curve, poor fit] | 
6 | Cc1ccc(COc2ccc3c(c2)OCO3)cc1 | 5.62 µM [rising, full curve] | 
7 | CCOC(=O)C(=CNc1ncccc1C)C(=O)OCC | 0.251 µM [rising, full curve, poor fit] | 
8 | Cc1ccc(O)c(CNc2ccccn2)c1 | 1 µM [rising, full curve, poor fit] | 
9 | COc1ccc(S(=O)(=O)N(C)C)cc1NC(=O)CSc1nnc(-c2cccnc2)o1 | 8.91 µM [rising, partial curve, poor fit] | 
10 | CCCOc1ccc(N2C(=O)CC(NCC#N)C2=O)cc1 (stereo not drawn) | 2.51 µM [rising, full curve, poor fit] | 
11 | CC(=O)c1ccc(NC(=O)CN2c3cccc4cccc(c34)S2(=O)=O)cc1 | 5.8 µM [rising, partial curve] | 
12 | Cc1ccc(NC(=S)NCc2ccccc2)c(C)c1 | 31.6 µM [rising, partial curve, poor fit] | 
13 | Cc1cc(/C=C2/SC(=O)N(CC(=O)OC(C)C)C2=O)c(C)n1C | 0.58 µM [rising, full curve, poor fit] | 
14 | Cc1nn(-c2ccccc2)c(Cl)c1/C=N/O | 2.31 µM [rising, full curve, poor fit] | 
15 | CCN1CC=C2C(C#N)=C(N)C(C#N)(C#N)[C@H](c3ccoc3)[C@H]2C1 | 0.1 µM [falling, full curve, poor fit] | 
16 | COc1ccccc1C(=O)NNC(=O)C(=O)NC1CCCCC1 | 35.5 µM [falling, single point] | 
17 | CC1=C(C(=O)OC(C)(C)C)C(c2ccc3ccccc3c2)NC(=O)N1C (stereo not drawn) | 11.2 µM [falling, partial curve, poor fit] | 
18 | S=C(NNc1nc(Nc2ccccc2)nc(N2CCCCC2)n1)NC1CCCCC1 | 14.1 µM [falling, single point] | 
19 | CSc1nsc2nc(=O)c(/C=C3\C=Nc4ccccc43)c(N)n12 | 25.1 µM [falling, single point] | 
20 | CC(=O)n1nc(-c2cccc(C)c2)nc1SCC(=O)Nc1ccccc1 | 14.6 µM [falling, partial curve] | 
21 | O=S1(=O)CCOCCCN1Cc1ccccc1F | 6.31 µM [rising, single point] | 

Two entries drawn at random from the list so far:
Row | Compound | AC50 [1] | AC50 (measured here: IkBa-CBG green luminescence)
18 | S=C(NNc1nc(Nc2ccccc2)nc(N2CCCCC2)n1)NC1CCCCC1 | 14.1 µM [falling, single point] | 
3 | Cc1ccc(S(=O)(=O)n2ccc3c2CCCC3=O)cc1 | 15.8 µM [rising, partial curve, poor fit] | 

Additional results:

Row | Compound | AC50 [1] | AC50 (measured here: IkBa-CBG green luminescence)
22 | O=C1CC(c2ccc(O)cc2)Oc2ccccc21 (stereo not drawn) | 0.184 µM [rising, full curve] | 
23 | O=C(NCCCCc1ccccc1)c1cc([N+](=O)[O-])cc([N+](=O)[O-])c1 | 17.8 µM [rising, partial curve, poor fit] | 
24 | COc1ccc(OC)c(NC(=O)c2ccccc2N(Cc2ccccc2)S(C)(=O)=O)c1 | 5.01 µM [rising, partial curve, poor fit] | 
25 | CC1(C)CC(CCC(=O)NC(=S)Nc2ccccc2Cl)C(=O)O1 (stereo not drawn) | 10 µM [falling, partial curve] | 
26 | Clc1ccc(-c2cc(C3CCNCC3)[nH]n2)cc1 | 35.5 µM [falling, single point] | 
27 | Cc1ccc(-n2c(=O)cc(N3CCN(Cc4ccccc4)CC3)[nH]c2=O)cc1 | 16.4 µM [rising, single point] | 
28 | COC(=O)c1ccc(COc2ccc(C(C)(C)C)cc2)o1 | 3.98 µM [rising, single point] | 
29 | O=C(c1cc(-c2ccc(Br)cc2)on1)N1CCc2ccccc2C1 | 15.8 µM [rising, single point] | 
30 | Cc1ccc(C)c(NC(=O)CSc2nnc(CCCCCNC(=O)OC(C)(C)C)o2)c1 | 29.1 µM [falling, single point] | 
31 | CCCCSc1nc2sc3c(c2c(=O)[nH]1)CCC3 | 1.64 µM [rising, partial curve, poor fit] | 
32 | CN(C)c1ccc(/C=N/NC(=O)c2ccc3c(c2)OCO3)cc1 | 7.08 µM [falling, partial curve, poor fit] | 
33 | CC(=O)C1=C(C)N(c2ccccc2)C(=O)C1(NS(=O)(=O)c1ccc(N)cc1)C(F)(F)F (stereo not drawn) | 12.6 µM [rising, partial curve] | 
34 | COc1cc(SC)ccc1C(=O)Nc1cccc(C)n1 | 11.2 µM [falling, single point] | 
35 | CCOC(=O)c1cnn(-c2cc(C)nc3c(-c4ccccc4)cnn23)c1N | 25.1 µM [rising, partial curve, poor fit] | 
36 | CCCc1cc(=O)[nH]c(SCc2ccc(F)cc2)n1 | 11.2 µM [falling, partial curve] | 
37 | Cc1cccc(NC(=O)N2CCCC2C(=O)Nc2ccccc2)c1 (stereo not drawn) | 35.5 µM [rising, single point] | 
38 | CCOC(=O)N1CCN(C(=O)COc2ccccc2OC)CC1 | 35.5 µM [rising, single point] | 
39 | CCN(CC)C(=O)CN(c1ccc(C)cc1)S(=O)(=O)c1ccc(SC)cc1 | 1.58 µM [falling, partial curve] | 
40 | COc1ccc(C(=O)Nc2ccc(C)cn2)cc1S(=O)(=O)N1CCCc2ccccc21 | 0.82 µM [falling, partial curve] | 
41 | O=C(c1ccccc1)c1c[nH]c(C(=O)C(Cl)(Cl)Cl)c1 | 11.2 µM [falling, partial curve] | 
42 | Cc1c(CCOC(=O)c2ccc([N+](=O)[O-])cc2)sc[n+]1CC(=O)c1ccccc1 | 0.631 µM [rising, partial curve] | 
